From PubChem BioAssay AID1508600 (Functional Genomics Laboratory (NCATS/FGL), 2020)
In all, about 53,000 sequences went through this assay and about 3,700 (7%) were called active.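 Rule for the calls: active = gene knockdowns whose robust z-score for IL-1 alpha signal is at least 2 or at most -2, so actives lie on both sides; inactive = the rest.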 The list shows a part of the results.

Test: Components of the Cytosolic LPS Sensing Pathway: Gene Identification via Genome-wide siRNA Screen;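 note: robust z of the log signal after scaling to non-targeting control siRNA wells of the plate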
Settings: RAW264.7 macrophages, IL-1a HTRF, actives lie on both sides, screened at 100 nM (by protocol), cells primed 5 h with Pam3CSK4 first
Procedure, shortened: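 Three distinct siRNAs per gene were tested singly at 100 nM in RAW264.7 macrophages. Following Pam3CSK4 priming and 24 hour LipidA transfection, IL-1a secretion was read by HTRF.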

| Sequence | z-score |
| --- | --- |
| GGAACCUACUGCUACAUCATT against Sftpc | active: 2.24 |
| GGGACAUCUUCUCCAAUGATT against Slc24a3 | inactive: -0.354 |
| GGUCCAGCUGUUCAUGACUTT against Kcnn4 | inactive: 0.268 |
| GCGGCUUUGGAAUGACUCUTT against Samd8 | inactive: -0.0645 |
| GGUUCUAUCUGAUAGGCGATT against Gdf9 | inactive: 0.574 |
| GGUUCUAGCAAACGGAGAATT against Phf12 | inactive: 1.76 |
| GGAAGACAACAACCUAGAATT against Rpn1 | inactive: -0.894 |
| GGGAAGGCACACCAUAGAATT against Zfp369 | inactive: 1.11 |
| CCAGGAGACCCAAUGUUGUTT against Pramel25 | inactive: -0.48 |
| GGCCCUUCAUGAAGAGCAATT against Carf | active: 2.07 |
| GGAACACUUUAAGACCAAATT against Fmnl1 | inactive: 0.482 |
| GGACAAGAACAAUUGCUAUTT against Zscan4c | inactive: 0.73 |
| GCAGGUUUAACAACUUACUTT against Dmgdh | active: 3.07 |
| CGGGAAGAAGUUCAUAAAUTT against Topbp1 | inactive: 0.36 |
| CGAAAUCCUAGUUUCGUCCTT against Spns1 | active: 3.29 |
| GGGAGAUGAAGAGGAGAAGTT against Smad9 | inactive: 0.448 |
| GGAGGUAACAACAACAGAATT against BC028528 | inactive: 0.7 |
| CGAUUACAUCCUUUUUGACTT against Gpn3 | inactive: -0.228 |
| GGGACAGUAGAAGAUGUAGTT against Got2 | inactive: -0.706 |
| GGCAGUCAAUGAAGUUUUUTT against Fbxo38 | inactive: 1.11 |
| GGCACCUUGGAGUUACAUATT against Pcdha10 | inactive: -0.24 |
| GGUGACUAGUUCCAGAAGATT against Ptprm | inactive: -0.234 |

| Sequence | z-score |
| --- | --- |
| CGACUUCACCUUAUUCCUGTT against Nle1 | inactive: 0.811 |
| CGGGUAACAGAAAUACUGUTT against Trib1 | inactive: 1.15 |
| GCAUCUGGGACAUUUAGAGTT against Cd200r3 | inactive: -1.08 |
| CGAGUCAAUCAACUUGUCUTT against Olfr54 | inactive: -0.882 |
| GGAAUGUCGAAUUGAUUGUTT against Klrb1b | inactive: 0.524 |
| GGUCACGAUUAUCUUCAAATT against Rgmb | inactive: -0.708 |
| GUCAAAGCACCAUUUGAGUTT against Vmn1r8 | inactive: -0.842 |
| UACUUCUGACUGUCAUUGGTT against Olfr310 | inactive: 0.92 |
| GCUUUUCUAGAAUACAGCCTT against Tdpoz4 | inactive: 0.525 |
| GGCUCAAGAGAAAAGAAGGTT against Cstdc1 | inactive: -0.594 |
| GGCAACAUCCAAAAACUCUTT against Yme1l1 | inactive: -0.338 |
| GGCAUCCAUGUGCUCUUUCTT against Tex13a | active: -2.49 |
| CCGGUGACUUGACUUACUATT against Man1a2 | inactive: 1.76 |
| CCAGCAAAUGAGAGGUCUGTT against Olfr1024 | inactive: 0.676 |
| GGCCAUUCUGGAAACUCCATT against Foxp4 | inactive: -0.0644 |
| GCAAGCCAACUGACCAUCATT against Nudt2 | inactive: 0.486 |
| GCGGCUCUUACGAGGUUUATT against Upk3a | inactive: 0.024 |
| GGAAACCUCCGAAAGGCAUTT against Rcor1 | inactive: -0.0503 |
| GGAUCUUCUUCUAUCAGUCTT against Ncf4 | inactive: 0.487 |
| CCAAAUGAUUCUGUGGCUGTT against Cebpe | inactive: -1.24 |
| GGAUGCACUAUCAUUAAGCTT against Tpx2 | inactive: -0.118 |
| GGGUUUUGCUACAUCAAUGTT against Pgm2l1 | inactive: 0.853 |

| Sequence | z-score |
| --- | --- |
| GGAUAUCCGCCUCACUCUUTT against Golph3l | inactive: 0.813 |
| GGCAAAGGACUUCAUGGCUTT against B4galt4 | inactive: -1.42 |
| CCACUUAACGAAGAAAUUATT against 8030462N17Rik | inactive: 0.891 |
| GGCAGAAAAGAUGGAAAAUTT against Evi5l | active: -2.1 |
| CCACCCUGUAUGAAUUUCUTT against Ripply3 | inactive: -1.14 |
| GGGAUUUUGCUGAAACUCATT against Klhl12 | inactive: 0.531 |
| GCUUGGCAGGUGAAUGUCATT against Oprm1 | inactive: -0.686 |
| GGAUGAUGAAGUCAAAUUUTT against Slc26a5 | inactive: 0.0656 |
| GGUUGAAGAUGAAAGAAGATT against Sin3a | inactive: 0.132 |
| CGCAUAUUGAGAUAUCUUGTT against Cbln3 | inactive: -0.343 |
| CCACACGAGUAUUUUAGUATT against Tmem150a | inactive: -1.2 |
| GCCGUUGGUCGUGUUCGUUTT against Cmpk1 | inactive: 0.927 |
| GCAGCAAGUUUUGUCAGGGTT against Tmprss13 | inactive: -1.06 |
| GGCAUGUCUUAAUUUCAUUTT against Shisa2 | inactive: 0.333 |
| GGAUAGAUGGUACACGUCUTT against Khdc3 | inactive: 1 |
| GGAACACAAACUGAAAGUCTT against Elac2 | inactive: 0.103 |
| CCUCGACAUCUAAUGAAGATT against 4933405O20Rik | inactive: -1.58 |
| GCAACUGGCAGUCGCCUAUTT against Zfp940 | inactive: 0.381 |
| GGGUAUGUGCAAAUAUUCATT against Anln | inactive: -0.709 |
| GCAAAUCGAAAGCGGAGGUTT against Fem1c | inactive: 0.302 |
| GGAAUUCAGGGAGCUUCGATT against Vps50 | inactive: -1.63 |
| UGAUCUACACUUUGGCUGUTT against Olfr235 | inactive: -0.943 |

| Sequence | z-score |
| --- | --- |
| GCAAACUGCUCUGUGGUAUTT against Olfr1310 | inactive: -1.65 |
| CGUGUUUCGACACCUCCUUTT against Taar9 | inactive: 1.39 |
| CGAGCUAGAAGAGCUUCCATT against Hdgfl2 | inactive: -0.829 |
| GGGAAUGUCUGAAAGUCCCTT against Klhdc10 | inactive: 0.66 |
| GGUUGGUUCUUACUUGAAATT against Mindy3 | inactive: 0.613 |
| GAAGUUCAAUGGAGAAGACTT against Arl2 | inactive: -0.825 |
| GCCAAUCUGGUGAUACUUCTT against Vmn1r71 | inactive: -1.64 |
| GGUUGUGGCCAUCAAGAAATT against Mapk15 | inactive: 0.108 |
| GGAGGAGUUCAUUGAGGCATT against Elf5 | inactive: -0.0248 |
| GGUUUUUGUGGAAAUGUGGTT against Smpd4 | active: -2.58 |
| CGCCUUCCUUCAACACGCATT against 1700049L16Rik | inactive: -1.12 |
| GCAAGAGGAGGACGAAAAGTT against Ssna1 | inactive: -0.0483 |
| GGUUUAAAUGCAGUUCACATT against Arl9 | inactive: 0.587 |
| GGGUCUGGAGAAUCUUCAGTT against Tgfb1i1 | inactive: 0.923 |
| GGAAAAGUGAUAGUGGCUCTT against Ccnl2 | inactive: -1.48 |
| GCACUACUGAUGGGUUUCUTT against Nme2 | inactive: 1.7 |
| GGUCAGUCCCUAGAUUAUATT against Fcgbp | inactive: -0.816 |
| GGAAGAUCCGCUUCAACGUTT against Mab21l4 | inactive: 1.2 |
| GCCCUGCUAGACAUUCUCUTT against Arrdc1 | inactive: -1.48 |
| CCGAUUCACUGUCCCUUUATT against Slc25a47 | inactive: 0.59 |
| GGGCAUAUUCACUUUAAAATT against Dram1 | inactive: 0.209 |
| GGACCAGUGUCUUUUCAGATT against Hmmr | inactive: 0.257 |

| Sequence | z-score |
| --- | --- |
| GGUUGAUUUGUAGGGAGAGTT against Olfr1110 | inactive: 1.44 |
| AUGGUGCUGUUUUAUUUGUTT against Olfr671 | inactive: -0.807 |
| GGCACCGAGAUUGUCAUUCTT against Olfr1246 | inactive: -0.893 |
| GGCAGUGCUGGCAACAAAUTT against Hsd3b5 | inactive: -0.884 |
| CCAAUCAGCAACUUCUUAUTT against Fbxl21 | inactive: -0.661 |
| GGUGGUACAGGAUCUAUGUTT against Etfa | inactive: -1.35 |
| CCAUUGCAUAUUUAGUAGCTT against Sox11 | inactive: -0.765 |
| GGUUUAAACCAGAAAAAUGTT against 4930524B15Rik | inactive: 1.36 |
| GGCACAAAAGAAGAUCCUGTT against Tnfaip8 | inactive: -1.53 |
| GGAUCCUGCUAAGACCAUCTT against Sstr3 | inactive: 0.602 |
| GGAAGAGAAGCAAAUCCAATT against Spats2l | inactive: -1.09 |
| GGUUAUAUGCAGAGGAACUTT against Arid1a | inactive: -0.436 |
| GAACCAUCCGAGUAUGGCUTT against Wdfy1 | inactive: 0.847 |
| GGAAGUCUAGGUAAAAAAGTT against Samsn1 | inactive: -0.994 |
| GGUUUACACCCUCAGAUCATT against Cct7 | inactive: -0.985 |
| GGCAUGACUUCCACAUGAATT against Pdcd1 | inactive: 0.672 |
| GGUCAAGUUAAGGUAUUUCTT against Pkhd1 | inactive: -0.0863 |
| GGAAAAAUUGACCAAAGGATT against Gpalpp1 | inactive: 1.25 |

Retrieved one by one from the list above, five records:

| Sequence | z-score |
| --- | --- |
| GGUUUAAAUGCAGUUCACATT against Arl9 | inactive: 0.587 |
| GGUUUAAACCAGAAAAAUGTT against 4930524B15Rik | inactive: 1.36 |
| UACUUCUGACUGUCAUUGGTT against Olfr310 | inactive: 0.92 |
| GCAACUGGCAGUCGCCUAUTT against Zfp940 | inactive: 0.381 |
| GGCAACAUCCAAAAACUCUTT against Yme1l1 | inactive: -0.338 |
